# Data as given in PubChem BioAssay AID540276 (National Center for Advancing Translational Sciences (NCATS), 2011).
# The campaign covered roughly 300,000 compounds. About 5,400 (1.8%) were called active. The shares of active, inactive and inconclusive entries below differ from those in the screen. Calls follow the shape of the full dose curve; tested in HEK293 cells. Where the call is inconclusive, the potency comes from a doubtful curve fit.
# Experiment: qHTS for inhibitors of binding or entry into cells for Marburg Virus
# Details: Marburg virus pseudotyped entry inhibition, cell reporter; activity change, negative = inhibition: at 37.8 µM (top of the series) unless noted
# % is scaled to controls: 0 for no effect and ±100 for the full control effect; potency is read from the fitted curve at half-maximal effect.
SMILES,"activity change, negative = inhibition",Potency
CCOC(=O)c1c(C)c(/C=N/Nc2ccccc2)n(C)c1C,inactive: 13.9% [at 46.1 µM],–
CCN(CC)S(=O)(=O)c1ccc2[nH]c(=O)[nH]c2c1,–,"inconclusive: 6.31 µM [activator, partial curve, poor fit]"
COc1ccccc1NC(=O)N(Cc1ccco1)Cc1cc2cc(C)cc(C)c2[nH]c1=O,–,"inconclusive: 17.8 µM [inhibitor, single point]"
CSc1ncccc1C(=O)OCC(=O)N(C)C,–,"inconclusive: 11.2 µM [activator, single point]"
COC(=O)C1=CNC=C(C(=O)OC)C1c1cccc(OC)c1,inactive: -1.17%,–
C/C(CC(=O)Nc1ccc2c(c1)OCCO2)=N\NC(=O)COc1ccccc1,inactive: 1.03% [at 46.1 µM],–
Oc1cccc(-c2nnc(-c3cccc(O)c3)nn2)c1,–,"inconclusive: 6.31 µM [inhibitor, full curve, poor fit]"
COc1ccccc1NS(=O)(=O)c1cccc(NC(=O)Nc2ccccc2)c1,–,"inconclusive: 35.5 µM [inhibitor, single point]"
COc1cccc(CNC(=O)Cc2csc(Nc3nc(=S)[nH]c4ccccc34)n2)c1,–,"inconclusive: 3.16 µM [inhibitor, single point]"
O=C(Nc1ccc2c(c1)CN(Cc1ccc(CO)o1)CC2)c1ccc(C(F)(F)F)cc1,–,"inconclusive: 25.1 µM [inhibitor, single point]"
Cn1nnnc1SCC(=O)N1CCN(c2ccc(Cl)cc2)CC1,inactive: -15.3%,–
C=CCn1c(O)c(C(CC)=NCC2CCCO2)c(=O)[nH]c1=O (stereo not given),inactive: 5.28%,–
CC(=O)Nc1cc(C(F)(F)F)ccc1OCC1CCCO1 (stereo not given),–,"inconclusive: 4.47 µM [activator, single point]"
CCCCCN(C(=O)CCC(=O)OCc1ccccc1Cl)c1c(N)n(CCCC)c(=O)[nH]c1=O,–,"inconclusive: 3.16 µM [inhibitor, single point]"
Cc1cc(OCC(=O)N(C)C)c2c(-c3ccccc3)cc(=O)oc2c1,inactive: -5.51%,–
COC1=CC(=O)c2c(ccc3ncnc(N)c23)C1=O,–,"inconclusive: 0.224 µM [inhibitor, full curve, poor fit]"
N#C/C(=C\c1ccc(Oc2ccc(C(F)(F)F)cc2[N+](=O)[O-])cc1)c1nc2ccccc2[nH]1,–,"inconclusive: 14.1 µM [inhibitor, partial curve, poor fit]"
Cc1ccc(Nc2c(-c3ccc(C)o3)nc3ncccn23)cc1,–,"inconclusive: 35.5 µM [inhibitor, single point]"
CCCCOc1ccc(/C=C/C(=O)NCCc2nc3ccccc3[nH]2)cc1,inactive: -17.1%,–
Cc1ccc(N(C(=O)Cn2nnc(-c3cccs3)n2)C(C(=O)NC2CCCC2)c2ccncc2)cc1 (stereo not given),–,"inconclusive: 0.411 µM [activator, partial curve, poor fit]"

# Rewritten with bars between the fields: entries from further up
SMILES | activity change, negative = inhibition | Potency
CCN(CC)S(=O)(=O)c1ccc2[nH]c(=O)[nH]c2c1 | – | inconclusive: 6.31 µM [activator, partial curve, poor fit]
COC1=CC(=O)c2c(ccc3ncnc(N)c23)C1=O | – | inconclusive: 0.224 µM [inhibitor, full curve, poor fit]
